Results are given in words; binding and its absence hold for the method and conditions named. In cells and extracts the contact can be indirect. Some entries that bind do so weakly or less than the wild type. For part of these data: Tags and fused reporters may be left off the sequences shown.
T1: HDAC5 (histone deacetylase 5), in mouse embryonic fibroblasts, Q9Z2V6
T1 chain: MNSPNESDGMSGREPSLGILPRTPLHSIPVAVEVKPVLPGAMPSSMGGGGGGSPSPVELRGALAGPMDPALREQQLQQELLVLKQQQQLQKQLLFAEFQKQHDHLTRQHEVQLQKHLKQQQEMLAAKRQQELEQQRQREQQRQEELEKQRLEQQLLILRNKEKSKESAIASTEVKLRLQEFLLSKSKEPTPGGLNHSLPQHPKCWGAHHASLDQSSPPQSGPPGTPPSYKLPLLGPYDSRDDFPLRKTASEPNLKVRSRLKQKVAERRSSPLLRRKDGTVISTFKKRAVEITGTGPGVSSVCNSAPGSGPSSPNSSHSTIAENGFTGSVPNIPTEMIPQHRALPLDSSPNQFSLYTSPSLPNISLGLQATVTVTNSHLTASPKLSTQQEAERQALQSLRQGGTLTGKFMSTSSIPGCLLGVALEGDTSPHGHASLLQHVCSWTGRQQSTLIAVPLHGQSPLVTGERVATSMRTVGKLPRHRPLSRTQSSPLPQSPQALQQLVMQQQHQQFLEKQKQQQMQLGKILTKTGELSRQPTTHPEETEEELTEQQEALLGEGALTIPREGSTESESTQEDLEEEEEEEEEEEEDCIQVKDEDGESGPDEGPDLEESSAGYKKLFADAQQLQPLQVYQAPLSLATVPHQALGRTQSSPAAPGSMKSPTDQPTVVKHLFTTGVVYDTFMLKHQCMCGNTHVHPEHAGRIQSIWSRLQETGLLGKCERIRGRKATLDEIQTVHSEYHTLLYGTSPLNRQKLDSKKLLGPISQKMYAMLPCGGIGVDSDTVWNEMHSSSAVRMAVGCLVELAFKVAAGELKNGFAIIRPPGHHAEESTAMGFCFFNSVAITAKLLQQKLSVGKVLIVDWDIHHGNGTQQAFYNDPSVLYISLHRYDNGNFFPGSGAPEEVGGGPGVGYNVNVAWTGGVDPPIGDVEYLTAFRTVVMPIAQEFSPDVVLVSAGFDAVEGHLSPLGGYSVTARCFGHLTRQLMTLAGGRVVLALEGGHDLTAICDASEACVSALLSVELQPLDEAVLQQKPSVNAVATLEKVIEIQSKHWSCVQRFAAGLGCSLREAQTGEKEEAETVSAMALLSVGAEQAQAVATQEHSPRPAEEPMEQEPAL

Sequences of proteins named here, by UniProt entry; tags and fusion partners are left off.
UniProt Q60929: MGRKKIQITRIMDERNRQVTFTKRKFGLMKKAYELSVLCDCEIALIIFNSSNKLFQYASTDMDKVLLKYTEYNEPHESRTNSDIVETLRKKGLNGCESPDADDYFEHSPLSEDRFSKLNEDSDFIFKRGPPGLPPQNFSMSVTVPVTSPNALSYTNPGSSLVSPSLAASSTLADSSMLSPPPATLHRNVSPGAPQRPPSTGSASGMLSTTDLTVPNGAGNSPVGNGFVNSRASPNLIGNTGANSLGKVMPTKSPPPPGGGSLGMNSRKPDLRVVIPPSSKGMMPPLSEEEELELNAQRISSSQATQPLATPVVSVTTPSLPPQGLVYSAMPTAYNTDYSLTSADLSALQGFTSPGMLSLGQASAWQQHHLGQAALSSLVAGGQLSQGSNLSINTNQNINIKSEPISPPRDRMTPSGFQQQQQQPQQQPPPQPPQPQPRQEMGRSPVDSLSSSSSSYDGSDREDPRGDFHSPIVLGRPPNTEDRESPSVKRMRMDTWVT
UniProt O35253: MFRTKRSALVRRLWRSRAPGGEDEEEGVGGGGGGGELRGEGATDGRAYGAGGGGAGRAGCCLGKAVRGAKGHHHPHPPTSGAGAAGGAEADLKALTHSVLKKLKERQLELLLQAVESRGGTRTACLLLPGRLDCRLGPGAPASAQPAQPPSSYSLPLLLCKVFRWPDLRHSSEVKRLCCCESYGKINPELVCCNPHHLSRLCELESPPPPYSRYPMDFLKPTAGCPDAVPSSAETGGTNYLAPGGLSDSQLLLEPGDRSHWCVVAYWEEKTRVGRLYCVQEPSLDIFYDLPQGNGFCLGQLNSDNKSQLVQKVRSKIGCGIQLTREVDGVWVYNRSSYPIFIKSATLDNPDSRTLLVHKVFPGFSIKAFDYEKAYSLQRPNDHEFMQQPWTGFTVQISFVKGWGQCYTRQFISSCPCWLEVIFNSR


Legend:
[1] = target: HDAC5 (histone deacetylase 5), in mouse embryonic fibroblasts (UniProt Q9Z2V6); assay: co-IP; lysates of MEFs in IP lysis buffer; Co-Immunoprecipitation Kit (ThermoFisher #26149); antibodies to HDAC5, Smad7, MEF2A, NF-κB p65; normal rabbit IgG as negative control; for Smad7 before or after TGF-β1 addition
[2] = target: T1, HDAC5 (histone deacetylase 5), in mouse …; assay: as above; conditions: remark: other sources report otherwise

| binding [1] | binding [2] | Molecule |
| --- | --- | --- |
| binds | – | MEF2A (myocyte enhancer factor 2A), in mouse embryonic fibroblasts (from UniProt Q60929 1-498) |
| no binding | – | Smad7, in mouse embryonic fibroblasts (from UniProt O35253 1-426) |
| – | no binding | NF-κB p65, in mouse embryonic fibroblasts, Q04207 1-549 (protein) MDDLFPLIFPSEPAQASGPYVEIIEQPKQRGMRFRYKCEGRSAGSIPGERSTDTTKTHPTIKINGYTGPGTVRISLVTKDPPHRPHPHELVGKDCRDGYYEADLCPDRSIHSFQNLGIQCVKKRDLEQAISQRIQTNNNPFHVPIEEQRGDYDLNAVRLCFQVTVRDPAGRPLLLTPVLSHPIFDNRAPNTAELKICRVNRNSGSCLGGDEIFLLCDKVQKEDIEVYFTGPGWEARGSFSQADVHRQVAIVFRTPPYADPSLQAPVRVSMQLRRPSDRELSEPMEFQYLPDTDDRHRIEEKRKRTYETFKSIMKKSPFNGPTEPRPPTRRIAVPTRNSTSVPKPAPQPYTFPASLSTINFDEFSPMLLPSGQISNQALALAPSSAPVLAQTMVPSSAMVPLAQPPAPAPVLTPGPPQSLSAPVPKSTQAGEGTLSEALLHLQFDADEDLGALLGNSTDPGVFTDLASVDNSEFQQLLNQGVSMSHSTAEPMLMEYPEAITRLVTGSQRPPDPAPTPLGTSGLPNGLSGDEDFSSIADMDFSALLSQISS |

Reference: publication PMC9576526
